SMILES strings stand for the structures. Where a name gives a salt, the structure may show the parent alone. About 180 (8.6%) of roughly 2,100 compounds showed an effect of 50% or more. The list shows a part of the results.

In the assay the test system is MOLM1 and UCSD/AML1 (averaged). Nature of the assay: cell viability relative to DMSO control (POC); higher = less growth inhibition. To be noted: 1 µM; 72 h. How it is done: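 Primary viability screen in the 3q26 EVI1-high AML cell lines MOLM1 and UCSD/AML1 (1.5e3 cells/well, 384-well), compounds at 1 uM for 72 h. ATP CellTiter-Glo read-out given as percent of viable cells over DMSO control (POC), averaged over duplicates. DMSO was the negative control and 5 uM etoposide the positive control. This mapping covers the MicroSource Spectrum and Selleck anticancer libraries (drug names).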
As usually defined, the cell viability is a read-out of living cells in per cent, often relative to untreated cells. As for `S=P(N1CC1)(N1CC1)N1CC1`, the cell viability was determined as 86%.
With `CC(C)[C@@H]1CC[C@@H](C)C[C@H]1OC(=O)c1ccccc1`, the cell viability stood at 109%.
As for `CC(=O)O[C@H]1CC[C@]2(C)[C@H]3CC=C4[C@@H]5CC(C)(C)CC[C@]5(C(=O)O)CC[C@@]4(C)[C@]3(C)CC[C@H]2C1(C)C`, the figure is 102%.
Then `Cc1cc(O)cc(=O)o1`, with 112%.
Then `COC(=O)[C@@H]1OC(=O)C2OC23[C@@]1(C)CCC1[C@]2(C)C(C[C@@H](O)[C@]13C)C(C)(C)[C@H](OC(C)=O)C[C@@H]2OC(C)=O` (stereo partly specified), with 111%; and `COc1ccc(C(C)=O)c(O)c1`, with 103%; and `COC(=O)/C(=C1/OC(=O)C(c2ccccc2)=C1O)c1ccccc1`, with 102%.
In the case of `CC(C)[C@H]1CC[C@H](C(=O)N[C@H](Cc2ccccc2)C(=O)O)CC1`, the cell viability amounted to 89.5%.
As for `COc1c(O)cc2c(c1O)[C@@H]1O[C@H](CO)[C@@H](O)[C@H](O)[C@H]1OC2=O`, the figure is 101%.
As for `COc1cc(-c2coc3cc(OCc4ccccc4)c(OC)c(O)c3c2=O)cc(O)c1OC`, the figure is 95.2%; as for `COc1ccccc1OCCNCC(O)COc1cccc2[nH]c3ccccc3c12` (stereo unspecified), 88.8%; as for `COc1cc(N2CCC(N3CCN(C)CC3)CC2)ccc1Nc1ncc(Cl)c(Nc2ccccc2S(=O)(=O)C(C)C)n1`, 30.7%.
For `CC1CCc2cc(F)cc3c(=O)c(C(=O)O)cn1c23` (stereo unspecified), the cell viability was 99.7%.
For the compound `COc1cc2c(cc1OC)-c1c(oc3cc(O)cc(O)c3c1=O)CO2`, the cell viability worked out at 103%.
As for `CCCCOc1ccc(OCCCN2CCOCC2)cc1`, the figure is 97.5%; as for `CCOC(=O)C1=C(C)NC(C)=C(C(=O)OC)C1c1cccc([N+](=O)[O-])c1` (stereo unspecified), 89.3%; as for `CC1(C)S[C@@H]2[C@H](N3C(=O)[C@@H](c4ccccc4)NC3(C)C)C(=O)N2[C@H]1C(=O)O`, 98.2%.
As for `CC(C)=CCc1c(O)cc2occ(-c3ccc4c(c3)OCO4)c(=O)c2c1O`, the figure is 100%; as for `CCn1cc(C(=O)O)c(=O)c2cc(F)c(N3CCNCC3)cc21`, 99.5%.
Then `O=c1c(O)c(-c2ccc(O)c(O)c2)oc2c(O[C@@H]3O[C@H](CO)[C@@H](O)[C@H](O)[C@H]3O)c(O)cc(O)c12`, with 91.3%.
Regarding `CNC(=O)c1ccccc1Sc1ccc2c(/C=C/c3ccccn3)n[nH]c2c1` [Axitinib], the cell viability amounted to 19.1%.
Then `CC(CN1c2ccccc2Sc2ccccc21)N(C)C` (stereo unspecified), with 99.4%; and `NS(=O)(=O)c1cc2c(cc1C(F)(F)F)NC(Cc1ccccc1)NS2(=O)=O` (stereo unspecified), with 99.4%.
As for `O=C(NC1CCNCC1)c1n[nH]cc1NC(=O)c1c(Cl)cccc1Cl`, the figure is 13.3%; as for `CC[C@H](Nc1ncnc2[nH]cnc12)c1nc2cccc(F)c2c(=O)n1-c1ccccc1`, 55.9%; as for `CN(C)CCCC1(c2ccc(F)cc2)OCc2cc(C#N)ccc21` (stereo unspecified), 115%.
Then `CCCC(CCC)C(=O)O` [Valproic acid sodium salt (Sodium valproate)], with 104%; and `CCCC(CCC)C(=O)O`, with 96.7%.
`Cc1onc(-c2ccccc2)c1C(=O)N[C@@H]1C(=O)N2[C@@H]1SC(C)(C)[C@@H]2C(=O)O`: the cell viability was 91.8%.
As for `OCC(O)CN1CCN(c2ccccc2)CC1` (stereo unspecified), the figure is 103%; as for `COc1cc2c(cc1OC)C(=O)OC2`, 103%; as for `COC1=CC(=O)C[C@@H](C)[C@]12Oc1c(Cl)c(OC)cc(OC)c1C2=O`, 97.8%.
As for `CCC(=O)NCC[C@@H]1CCc2ccc3c(c21)CCO3`, the figure is 98.1%.
As for `CC[C@H](/C=C/[C@@H](C)[C@H]1CC[C@H]2[C@@H]3CCC4=CC(=O)CC[C@]4(C)[C@H]3CC[C@]12C)C(C)C`, the figure is 108%; as for `COc1c2c(cc3occ(-c4ccc5c(c4)OCO5)c(=O)c13)OC(C)(C)C=C2`, 128%; as for `COc1ccc(-c2coc3cc(O)cc(O)c3c2=O)cc1`, 106%.
`COc1ccc(CC(=O)c2ccc(O)cc2O)cc1`: the cell viability was found to be 107%.
As for `CCOC(=O)c1ccc(O)cc1`, the figure is 102%.
As for `COc1ccc2cc1Oc1ccc(cc1)C[C@H]1c3c(cc4c(c3Oc3cc5c(cc3OC)CCN(C)[C@@H]5C2)OCO4)CCN1C`, the figure is 81.5%.
As for `O=C(O)c1ccccc1Nc1cccc(OCc2ccc3ccccc3n2)c1`, the figure is 91.3%; as for `COc1ccc(COc2cc3oc(=O)c4cc(C(C)O)ccc4c3cc2OC)cc1` (stereo unspecified) [Palomid 529], 87.1%.
Take `Cc1c(OCC(F)(F)F)ccnc1C[S+]([O-])c1nc2ccccc2[nH]1` (stereo unspecified): the cell viability was determined as 87.6%.
Then `CC[C@@H]1C(=O)N(C)c2cnc(Nc3ccc(C(=O)NC4CCN(C)CC4)cc3OC)nc2N1C1CCCC1`, with 13.2%; and `Cn1c(=O)c2c(ncn2C)n(C)c1=O`, with 112%; and `O=C(O)c1cc(=O)c2c(OCC(O)COc3cccc4oc(C(=O)O)cc(=O)c34)cccc2o1`, with 99.5%.
Regarding `CCCCC[C@H](CC(=O)NO)C(=O)N[C@H](C(=O)N1CCC[C@H]1CO)C(C)C`, the cell viability was found to be 93.3%.
Turning to `C=CCc1ccccc1OCC(O)CNC(C)C` (stereo unspecified), the cell viability was found to be 89.4%.
`NC[C@H]1CC[C@H](C(=O)O)CC1`: the cell viability worked out at 115%.
Consider `Oc1c(Cl)cc(Cl)cc1Sc1cc(Cl)cc(Cl)c1O`, for which the cell viability amounted to 98.8%.
As to `CCCCOc1ccc(CC(=O)NO)cc1`, the cell viability amounted to 115%.
Then `CC(=O)OC(C)C[N+](C)(C)C` (stereo unspecified), with 89.5%; and `Nc1nc(=O)c2c([nH]1)NCC(CNc1ccc(C(=O)N[C@@H](CCC(=O)O)C(=O)O)cc1)N2C=O` (stereo partly specified), with 100%; and `Nc1nc(=O)c2c([nH]1)NCC(CNc1ccc(C(=O)N[C@@H](CCC(=O)O)C(=O)O)cc1)N2C=O` (stereo partly specified) [Leucovorin Calcium], with 99.3%.
As for `Cc1cccc(Nc2nc(-c3ccncc3)cs2)c1`, the figure is 98.9%; as for `CN(C)CCC(c1ccccc1)c1ccccn1` (stereo unspecified), 103%; as for `O=C(O)/C=C/C=C/c1ccc2c(c1)OCO2`, 109%.
Then `CC(C)CCC[C@@H](C)[C@H]1CC[C@H]2[C@@H]3CC=C4C[C@@H](O)CC[C@]4(C)[C@H]3CC[C@]12C`, with 105%.
Consider `CCOc1ccc(Cc2cc([C@@H]3O[C@H](CO)[C@@H](O)[C@H](O)[C@H]3O)ccc2Cl)cc1` [Dapagliflozin], for which the cell viability worked out at 128%.
Then `CC[C@]1(O)C[C@@H]2CN(CCc3c([nH]c4ccccc34)[C@@](C(=O)OC)(c3cc4c(cc3OC)N(C)[C@H]3[C@@](O)(C(=O)OC)[C@H](OC(C)=O)[C@]5(CC)C=CCN6CC[C@]43[C@@H]65)C2)C1`, with 7.14%; and `CC[C@]1(O)C[C@@H]2CN(CCc3c([nH]c4ccccc34)[C@@](C(=O)OC)(c3cc4c(cc3OC)N(C)[C@H]3[C@@](O)(C(=O)OC)[C@H](OC(C)=O)[C@]5(CC)C=CCN6CC[C@]43[C@@H]65)C2)C1` [Vinblastine], with 8.43%.
Consider `C[C@H]1CC[C@@H](C(C)(C)O)CC2=C1CC[C@@H]2C`, for which the cell viability was 94.4%.
Turning to `CC(=O)[C@H]1CC[C@H]2[C@@H]3CC=C4C[C@@H](OC(=O)CCC(=O)O)CC[C@]4(C)[C@H]3CC[C@]12C`, the cell viability was 80.6%.
For the compound `CCN(CCCc1ccccc1)CCCc1ccccc1`, the cell viability was 96.5%.
With `CCCCC(CC)COC(=O)c1ccccc1O` (stereo unspecified), the cell viability is 93.2%.
As for `O=P(O)(O)C(O)(Cc1cccnc1)P(=O)(O)O`, the figure is 76.8%; as for `O=C(O)c1cc(O)c(O)c(O)c1`, 104%; as for `CCN(CC)C(=O)N1CCN(C)CC1`, 113%.
With `Cn1cnc(N)c2ncnc1-2` [3-Methyladenine (3-MA)], the cell viability turned out to be 90.3%.
For the compound `CC(C)=CCC/C(C)=C/COc1ccc2ccc(=O)oc2c1`, the cell viability was 92.6%.
Then `CCCC(C(=O)OCCN(CC)CC)(c1ccccc1)c1ccccc1`, with 96.5%; and `CN1CCC[C@H]1c1cccnc1`, with 115%; and `O=S(=O)(O)CCSSCCS(=O)(=O)O` [Dimesna], with 112%.
For the compound `NC(=O)NO`, the cell viability stood at 102%.
Then `Clc1ccccc1C(c1ccccc1)(c1ccccc1)n1ccnc1`, with 94.4%; and `CO/N=C1\CN(c2nc3c(cc2F)c(=O)c(C(=O)O)cn3C2CC2)CC1CN` (stereo unspecified), with 90.1%.
Then `Clc1ccc(COC(Cn2ccnc2)c2ccc(Cl)cc2Cl)cc1` (stereo unspecified), with 87%; and `CCCCCCCCCCCCCCCC[N+](C)(C)C`, with 43.7%; and `NC(=O)C1(N2CCCCC2)CCN(CCCC(=O)c2ccc(F)cc2)CC1`, with 87.1%.
As for `CNC1(C)C2CCC(C2)C1(C)C` (stereo unspecified), the figure is 102%.
As for `C=C(NC(=O)C(=C)NC(=O)c1csc(C2=N[C@@H]3c4csc(n4)[C@H]4NC(=O)c5csc(n5)[C@H]([C@](C)(O)[C@@H](C)O)NC(=O)[C@H]5CSC(=N5)/C(=C/C)NC(=O)[C@H]([C@@H](C)O)NC(=O)c5csc(n5)[C@]3(CC2)NC(=O)[C@H](C)NC(=O)C(=C)NC(=O)[C@H](C)NC(=O)[C@H]([C@@H](C)CC)N[C@@H]2C=Cc3c([C@H](C)O)cc(nc3[C@H]2O)C(=O)O[C@@H]4C)n1)C(N)=O`, the cell viability is 78.1%.
Then `C[C@@H]1CC2C3C[C@H](F)C4=CC(=O)C=C[C@]4(C)[C@@]3(F)[C@@H](O)C[C@]2(C)[C@@]1(O)C(=O)COC(=O)C(C)(C)C` (stereo partly specified), with 70.2%.
As for `NC(=O)c1cccnc1`, the figure is 94.4%.
As for `CCCc1nc(C(C)(C)O)c(C(=O)OCc2oc(=O)oc2C)n1Cc1ccc(-c2ccccc2-c2nnn[nH]2)cc1`, the figure is 88.1%.
`c1ccc2c(-c3cnn4cc(-c5ccc(N6CCNCC6)cc5)cnc34)ccnc2c1`: the cell viability was determined as 37.8%.
As for `CC1=C(C(=O)O)N2C(=O)[C@@H](NC(=O)[C@H](N)c3ccc(O)cc3)[C@H]2SC1`, the figure is 99.1%; as for `Cc1[nH]c(/C=C2\C(=O)Nc3ccc(S(=O)(=O)Cc4c(Cl)cccc4Cl)cc32)c(C)c1C(=O)N1CCC[C@@H]1CN1CCCC1`, 92.1%; as for `OC[C@H]1O[C@@H](O[C@H]2[C@H](O)[C@@H](O)[C@@H](O)O[C@@H]2CO)[C@H](O)[C@@H](O)[C@@H]1O`, 105%.
Regarding `CC1=CCCC(C)=CCC(C)(C)C=CC1` [HUMULENE (alpha)], the cell viability was found to be 113%.
Then `CC(C)c1onc(-c2c(Cl)cccc2Cl)c1COc1ccc(/C=C/c2cccc(C(=O)O)c2)c(Cl)c1`, with 81.8%; and `CCOc1nc2cccc(C(=O)OC(C)OC(=O)OC3CCCCC3)c2n1Cc1ccc(-c2ccccc2-c2nn[nH]n2)cc1` (stereo unspecified), with 88.9%.
Then `Nc1ccc(S(N)(=O)=O)cc1`, with 97.1%; and `Nc1ncnc2c1ncn2[C@H]1C[C@H](O)[C@@H](CO)O1`, with 90.9%; and `COc1ccc2c(c1)OCC(Cc1ccc(OC)c(OC)c1)C2=O` (stereo unspecified), with 112%.
As for `Cn1c(=O)c(F)c(Nc2ccc(I)cc2F)c2c(=O)n(C[C@@H](O)CO)cnc21`, the figure is 24.8%; as for `COc1ccc([C@H]2Oc3cc(OC)cc(OC)c3C[C@H]2O)cc1`, 98.4%; as for `CC[C@]12CCCN3CCc4c(n(c5ccccc45)[C@@](O)(C(=O)OC)C1)[C@@H]32`, 107%.
